Data as given in PubChem BioAssay AID1159578 (Peter MacCallum Cancer Centre, 2015).

Assay: 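Knock-downs that alter how fast lymphatic endothelial cells migrate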 (primary screen)
Cell system: human lymphatic endothelial cells
Reagents: siRNA pool against human genes, 40 nM
Time to read-out: 48 h after transfection
Measured: 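Cells stained with dye and imaged after a scratch; covered wound area and nuclei counted, duplicates averaged, migration set against mock wells and turned into a robust z-score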
Direction: migration robust z-score: higher = faster migration into the scratch; nuclei per well: higher = more cells in the well
Rule for the call: 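Pools averaging fewer than 3300 nuclei are never called; remaining pools count as changed when migration robust z lies outside -2 to 2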
Calls: active = migration changed; inactive = no migration change, or too few cells
The deposit covers about 18,000 reagents; this is a random part of them. About 1,030 of all reagents (5.7%) were called active. 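Inactive calls also include pools with fewer than 3300 nuclei, whose migration was not assessed.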 The raw values are shown without normalisation. Unmarked entries are inactive. Further read-outs or replicates are left out here.

| Target gene | migration robust z-score | migration class with cell-count check | nuclei per well, duplicate mean |
| --- | --- | --- | --- |
| CTXN1 (cortexin 1) | -2.16 (active) | migration z below -2; enough cells | 5431 |
| CCNL2 (cyclin L2) | -1.01 | migration z between -2 and 2; enough cells | 5885 |
| SRSF8 (serine and arginine rich splicing factor 8) | 1.31 | migration z between -2 and 2; enough cells | 5093 |
| DNAJC19 (DnaJ heat shock protein family (Hsp40) member C19) | -0.26 | migration z between -2 and 2; enough cells | 4833 |
| ZNF276 (zinc finger protein 276) | -1.87 | migration z between -2 and 2; enough cells | 6066 |
| KCNE2 | -1.09 | migration z between -2 and 2; enough cells | 4521 |
| ATF1 (activating transcription factor 1) | 1.12 | migration z between -2 and 2; enough cells | 5968 |
| HSD11B1 (hydroxysteroid 11-beta dehydrogenase 1) | 0.29 | migration z between -2 and 2; enough cells | 6024 |
| ZMAT2 (zinc finger matrin-type 2) | 0.64 | migration z between -2 and 2; enough cells | 5690 |
| ALDH1B1 (aldehyde dehydrogenase 1 family member B1) | -0.26 | migration z between -2 and 2; enough cells | 6232 |
| SLC8A3 | 0.47 | migration z between -2 and 2; enough cells | 6076 |
| RABL2B (RAB, member of RAS oncogene family like 2B) | -1.38 | migration z between -2 and 2; enough cells | 5225 |
| NRG4 (neuregulin 4) | 0.32 | migration z between -2 and 2; enough cells | 6479 |
| SLU7 (spliceosome associated SLU7) | -0.03 | migration z between -2 and 2; enough cells | 5056 |
| LINC02910 (long intergenic non-protein coding RNA 2910) | 0.76 | migration z between -2 and 2; enough cells | 5362 |
| CDH19 (cadherin 19) | 1.44 | migration z between -2 and 2; enough cells | 6655 |
| OOEP (oocyte expressed protein) | -1.7 | migration z between -2 and 2; enough cells | 4570 |
| DECR1 (2,4-dienoyl-CoA reductase 1) | -0.6 | migration z between -2 and 2; enough cells | 6216 |
| HOXB5 (homeobox B5) | -0.78 | migration z between -2 and 2; enough cells | 7282 |
| CHAC1 (ChaC glutathione specific gamma-glutamylcyclotransferase 1) | 0.66 | migration z between -2 and 2; enough cells | 4299 |
| LDHAL6B (lactate dehydrogenase A like 6B) | 1.04 | migration z between -2 and 2; enough cells | 4742 |
| TICRR (TOPBP1 interacting checkpoint and replication regulator) | 1.85 | migration z between -2 and 2; enough cells | 3580 |
| TOMM34 (translocase of outer mitochondrial membrane 34) | -2.18 (active) | migration z below -2; enough cells | 3603 |
| NASP (nuclear autoantigenic sperm protein) | 0.02 | migration z between -2 and 2; enough cells | 6494 |
| HK1 (hexokinase 1) | -1.19 | migration z between -2 and 2; enough cells | 5628 |
| LINC02870 (long independently transcribed non-coding RNA 2870) | -0.05 | migration z between -2 and 2; enough cells | 5236 |
| SCRN1 (secernin 1) | -0.06 | migration z between -2 and 2; enough cells | 6146 |
| PPM1H (protein phosphatase, Mg2+/Mn2+ dependent 1H) | 0.42 | migration z between -2 and 2; enough cells | 6481 |
| RGL3 (ral guanine nucleotide dissociation stimulator like 3) | -1.02 | migration z between -2 and 2; enough cells | 5921 |
| TTC4 (tetratricopeptide repeat domain 4) | -0.86 | migration z between -2 and 2; enough cells | 5978 |
| KRTAP10-9 (keratin associated protein 10-9) | -2.26 (active) | migration z below -2; enough cells | 3792 |
| PKP2 (plakophilin 2) | 1.31 | migration z between -2 and 2; enough cells | 6636 |
| BLK (BLK proto-oncogene, Src family tyrosine kinase) | -0.73 | migration z between -2 and 2; enough cells | 5411 |
| RBBP9 (RB binding protein 9, serine hydrolase) | 0.02 | migration z between -2 and 2; enough cells | 4926 |
| NDFIP1 (Nedd4 family interacting protein 1) | -0.24 | migration z between -2 and 2; enough cells | 5740 |

Records listed so far marked active, once more:
| Target gene | migration robust z-score | migration class with cell-count check | nuclei per well, duplicate mean |
| --- | --- | --- | --- |
| CTXN1 (cortexin 1) | -2.16 (active) | migration z below -2; enough cells | 5431 |
| TOMM34 (translocase of outer mitochondrial membrane 34) | -2.18 (active) | migration z below -2; enough cells | 3603 |
| KRTAP10-9 (keratin associated protein 10-9) | -2.26 (active) | migration z below -2; enough cells | 3792 |

The listing continues.
| Target gene | migration robust z-score | migration class with cell-count check | nuclei per well, duplicate mean |
| --- | --- | --- | --- |
| LINC01565 (long independently transcribed non-coding RNA 1565) | 1.54 | migration z between -2 and 2; enough cells | 6544 |
| MPP3 (MAGUK p55 scaffold protein 3) | -2.41 (active) | migration z below -2; enough cells | 3472 |
| PEX6 (peroxisomal biogenesis factor 6) | 1.25 | migration z between -2 and 2; enough cells | 6154 |
| KRTAP5-5 (keratin associated protein 5-5) | 0.1 | migration z between -2 and 2; enough cells | 5124 |
| ALDH6A1 (aldehyde dehydrogenase 6 family member A1) | 0.72 | migration z between -2 and 2; enough cells | 6930 |
| HPDL (4-hydroxyphenylpyruvate dioxygenase like) | -2.63 (active) | migration z below -2; enough cells | 6344 |
| NGF (nerve growth factor) | 0.88 | migration z between -2 and 2; enough cells | 7035 |
| SULT1C2 (sulfotransferase family 1C member 2) | -0.1 | migration z between -2 and 2; enough cells | 4632 |
| KCND2 (potassium voltage-gated channel subfamily D member 2) | -1.04 | migration z between -2 and 2; enough cells | 5698 |
| KCNMB1 | 0.96 | migration z between -2 and 2; enough cells | 5274 |
| SSTR3 (somatostatin receptor 3) | 0.62 | migration z between -2 and 2; enough cells | 6376 |
| TEKT1 (tektin 1) | 0.92 | migration z between -2 and 2; enough cells | 5800 |
| DSCAM (DS cell adhesion molecule) | -1.41 | migration z between -2 and 2; enough cells | 5388 |
| TADA1 (transcriptional adaptor 1) | -0.08 | migration z between -2 and 2; enough cells | 6634 |
| TAFA5 (TAFA chemokine like family member 5) | -0.05 | migration z between -2 and 2; enough cells | 7486 |
| CLDN15 (claudin 15) | -0.7 | migration z between -2 and 2; enough cells | 4412 |
| HAX1 (HCLS1 associated protein X-1) | -0.68 | under 3300 nuclei; migration not judged | 3084 |
| RIPK1 (receptor interacting serine/threonine kinase 1) | -1.55 | migration z between -2 and 2; enough cells | 4298 |
| MSTN (myostatin) | -0.7 | migration z between -2 and 2; enough cells | 4812 |
| SPATA8 (spermatogenesis associated 8) | 0.84 | migration z between -2 and 2; enough cells | 6313 |
| TNS1 (tensin 1) | -0.26 | migration z between -2 and 2; enough cells | 7204 |
| MRPL40 (mitochondrial ribosomal protein L40) | -0.84 | migration z between -2 and 2; enough cells | 5665 |
| MNX1 (motor neuron and pancreas homeobox 1) | -0.34 | migration z between -2 and 2; enough cells | 4959 |
| GFER (growth factor, augmenter of liver regeneration) | -2.77 | under 3300 nuclei; migration not judged | 2186 |
| WBP4 (WW domain binding protein 4) | -1.48 | migration z between -2 and 2; enough cells | 5506 |
| ZSCAN26 (zinc finger and SCAN domain containing 26) | -0.88 | migration z between -2 and 2; enough cells | 5178 |
| KCNS2 | -0.18 | migration z between -2 and 2; enough cells | 6175 |
| SART1 | -0.3 | migration z between -2 and 2; enough cells | 6358 |
| DTWD1 (DTW motif tRNA-uridine aminocarboxypropyltransferase 1) | -1.4 | migration z between -2 and 2; enough cells | 5924 |
| PIM2 (Pim-2 proto-oncogene, serine/threonine kinase) | -3.6 | under 3300 nuclei; migration not judged | 2301 |
| OLFML2B (olfactomedin like 2B) | 0.6 | migration z between -2 and 2; enough cells | 6296 |
| ANO1 (anoctamin 1) | -0.66 | migration z between -2 and 2; enough cells | 5208 |
| ZNF232 (zinc finger protein 232) | 0 | migration z between -2 and 2; enough cells | 5748 |
| LARGE2 (LARGE xylosyl- and glucuronyltransferase 2) | 0.39 | migration z between -2 and 2; enough cells | 4567 |
| SCHIP1 (schwannomin interacting protein 1) | -0.05 | migration z between -2 and 2; enough cells | 5816 |
| APOL5 (apolipoprotein L5) | 0.94 | migration z between -2 and 2; enough cells | 5456 |
| ADAMTS10 (ADAM metallopeptidase with thrombospondin type 1 motif 10) | -1.32 | migration z between -2 and 2; enough cells | 5400 |
| DLX4 (distal-less homeobox 4) | -0.62 | migration z between -2 and 2; enough cells | 5301 |
